Reference: paper PMC10352258
Results are given in words; binding and its absence hold for the method and conditions named. In cells and extracts the contact can be indirect. For some assays here: Binding calls can cover weak binding; strength is not graded here.

Sequences of proteins named here, by UniProt entry; tags and fusion partners are left off. A change or cut given only in a name is not applied to a line headed by its entry.
UniProt O00560: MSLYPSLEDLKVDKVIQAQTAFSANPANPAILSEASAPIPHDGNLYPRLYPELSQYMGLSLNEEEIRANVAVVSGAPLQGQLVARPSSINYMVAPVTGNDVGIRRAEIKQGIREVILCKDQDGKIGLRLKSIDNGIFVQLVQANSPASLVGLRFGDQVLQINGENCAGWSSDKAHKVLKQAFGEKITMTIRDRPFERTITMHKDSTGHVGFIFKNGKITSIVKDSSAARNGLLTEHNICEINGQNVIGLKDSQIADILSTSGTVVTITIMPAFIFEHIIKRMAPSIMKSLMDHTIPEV

How the values were obtained:
Flag-tagged SDCBP-△PDZ1 = Flag-tagged SDCBP-△PDZ1 (UniProt O00560); test: co-IP; ESCC cells cotransfected with Flag-tagged SDCBP (wild type or truncation mutants) and Myc-tagged HSP90 (wild type or mutants)
Flag-tagged SDCBP-△PDZ2 = Flag-tagged SDCBP-△PDZ2 (UniProt O00560); test: as above

binding (Flag-tagged SDCBP-△PDZ1): binds
binding (Flag-tagged SDCBP-△PDZ2): no binding
Substance: Myc-tagged HSP90 (wild type) (from UniProt P07900-2 1-854)
